Further values from the same series stand in other lists.
Test system: Escherichia coli
Experiment: minimum inhibitory concentration (MIC)
Method: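 Broth microdilution MIC (Sensititre BOPO7F bovine plate, CLSI methods) of 19 antimicrobials against field isolates of P. multocida, M. haemolytica, H. somni (deep nasopharyngeal swabs) and E. coli, Enterococcus spp. (rectal swabs) from weaned dairy heifers. Incubation 16-24 h at 35 C. MIC is the lowest concentration preventing visible growth. Values with <= or > lie at the tested range limits. Trimethoprim-sulfamethoxazole is given as the trimethoprim component of a 1:19 mixture.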

Measured: minimum inhibitory concentration

CCC[C@@H]1C[C@@H](C(=O)N[C@@H]([C@H]2O[C@H](SC)[C@H](O)[C@@H](O)[C@H]2O)[C@H](C)Cl)N(C)C1 [Clindamycin]
> 16 µg/mL: isolate (source animal id): 1 | isolate (source animal id): 2 | isolate (source animal id): 3 | isolate (source animal id): 4 | isolate (source animal id): 5 | isolate (source animal id): 6 | isolate (source animal id): 7 | isolate (source animal id): 17 | isolate (source animal id): 18 | isolate (source animal id): 19 | isolate (source animal id): 20 | isolate (source animal id): 21 | isolate (source animal id): 22 | isolate (source animal id): 23 | isolate (source animal id): 24 | isolate (source animal id): 25 | isolate (source animal id): 26 | isolate (source animal id): 27 | isolate (source animal id): 28 | isolate (source animal id): 29 | isolate (source animal id): 30 | isolate (source animal id): 31 | isolate (source animal id): 32 | isolate (source animal id): 33 | isolate (source animal id): 34 | isolate (source animal id): 35 | isolate (source animal id): 36 | isolate (source animal id): 37 | isolate (source animal id): 38 | isolate (source animal id): 39 | isolate (source animal id): 40 | isolate (source animal id): 41 | isolate (source animal id): 42 | isolate (source animal id): 43 | isolate (source animal id): 44 | isolate (source animal id): 45 | isolate (source animal id): 46 | isolate (source animal id): 47 | isolate (source animal id): 48 | isolate (source animal id): 49 | isolate (source animal id): 50 | isolate (source animal id): 51 | isolate (source animal id): 52 | isolate (source animal id): 53 | isolate (source animal id): 54 | isolate (source animal id): 55 | isolate (source animal id): 56 | isolate (source animal id): 57 | isolate (source animal id): 58 | isolate (source animal id): 59 | isolate (source animal id): 60 | isolate (source animal id): 61 | isolate (source animal id): 62 | isolate (source animal id): 63 | isolate (source animal id): 64 | isolate (source animal id): 65 | isolate (source animal id): 66 | isolate (source animal id): 67 | isolate (source animal id): 68 | isolate (source animal id): 69 | isolate (source animal id): 70 | isolate (source animal id): 71 | isolate (source animal id): 72 | isolate (source animal id): 73 | isolate (source animal id): 74 | isolate (source animal id): 75 | isolate (source animal id): 76 | isolate (source animal id): 77 | isolate (source animal id): 78 | isolate (source animal id): 79 | isolate (source animal id): 80 | isolate (source animal id): 81 | isolate (source animal id): 82 | isolate (source animal id): 83 | isolate (source animal id): 84 | isolate (source animal id): 85 | isolate (source animal id): 86 | isolate (source animal id): 87 | isolate (source animal id): 88 | isolate (source animal id): 89 | isolate (source animal id): 90 | isolate (source animal id): 91 | isolate (source animal id): 92 | isolate (source animal id): 93 | isolate (source animal id): 94 | isolate (source animal id): 95 | isolate (source animal id): 96 | isolate (source animal id): 97 | isolate (source animal id): 189 | isolate (source animal id): 190 | isolate (source animal id): 191 | isolate (source animal id): 192 | isolate (source animal id): 193 | isolate (source animal id): 194 | isolate (source animal id): 195 | isolate (source animal id): 196 | isolate (source animal id): 197 | isolate (source animal id): 198 | isolate (source animal id): 199 | isolate (source animal id): 200 | isolate (source animal id): 201 | isolate (source animal id): 202 | isolate (source animal id): 203 | isolate (source animal id): 204 | isolate (source animal id): 205 | isolate (source animal id): 206 | isolate (source animal id): 207 | isolate (source animal id): 208 | isolate (source animal id): 209 | isolate (source animal id): 210 | isolate (source animal id): 211 | isolate (source animal id): 212 | isolate (source animal id): 213 | isolate (source animal id): 214 | isolate (source animal id): 215 | isolate (source animal id): 216 | isolate (source animal id): 217 | isolate (source animal id): 218 | isolate (source animal id): 219 | isolate (source animal id): 220

Reference: the supplement of paper PMC8612539
